± gives the standard deviation of the averaged measurements. This is a selection; strong and weak results do not stand in their true shares.
Compound: Nc1ncnc2c1ncn2[C@@H]1O[C@H](COP(=O)(O)OP(=O)(O)OP(=O)(O)O)[C@@H](O)[C@H]1O [adenosine triphosphate]
Experiment: NP40-soluble protein abundance relative to vehicle (solubility fold change) (ratio); higher = more soluble protein in presence of ATP
How it was run: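 Eight concentrations, 0.1 to 10 mM, were tested on Jurkat crude lysate for 10 min at room temperature and then 3 min at 37 °C, in three independent experiments. The lysate was solubilised with 0.8% NP40 and benzonase, ultracentrifuged, and the supernatant TMT-labelled for LC-MS/MS. Each value is the fold change against the detergent-processed vehicle in its own replicate, from vsn-normalised intensities.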

The chains behind the UniProt entries cited, without tags or fusion partners. Where a name states a change or a piece, a line headed by the entry shows the natural chain unless it says otherwise.
UniProt Q9HB19: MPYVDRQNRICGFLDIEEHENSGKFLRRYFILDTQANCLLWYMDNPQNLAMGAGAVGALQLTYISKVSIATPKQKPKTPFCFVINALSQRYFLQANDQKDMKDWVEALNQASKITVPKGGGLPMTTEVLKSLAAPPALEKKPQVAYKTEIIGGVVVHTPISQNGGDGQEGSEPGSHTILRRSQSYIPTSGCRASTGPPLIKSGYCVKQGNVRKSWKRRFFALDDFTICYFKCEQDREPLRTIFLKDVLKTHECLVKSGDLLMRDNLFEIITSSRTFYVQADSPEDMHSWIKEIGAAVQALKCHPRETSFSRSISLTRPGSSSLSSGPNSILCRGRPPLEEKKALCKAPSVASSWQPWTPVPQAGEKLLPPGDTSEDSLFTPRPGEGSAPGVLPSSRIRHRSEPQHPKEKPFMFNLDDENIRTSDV
UniProt A1L0T0: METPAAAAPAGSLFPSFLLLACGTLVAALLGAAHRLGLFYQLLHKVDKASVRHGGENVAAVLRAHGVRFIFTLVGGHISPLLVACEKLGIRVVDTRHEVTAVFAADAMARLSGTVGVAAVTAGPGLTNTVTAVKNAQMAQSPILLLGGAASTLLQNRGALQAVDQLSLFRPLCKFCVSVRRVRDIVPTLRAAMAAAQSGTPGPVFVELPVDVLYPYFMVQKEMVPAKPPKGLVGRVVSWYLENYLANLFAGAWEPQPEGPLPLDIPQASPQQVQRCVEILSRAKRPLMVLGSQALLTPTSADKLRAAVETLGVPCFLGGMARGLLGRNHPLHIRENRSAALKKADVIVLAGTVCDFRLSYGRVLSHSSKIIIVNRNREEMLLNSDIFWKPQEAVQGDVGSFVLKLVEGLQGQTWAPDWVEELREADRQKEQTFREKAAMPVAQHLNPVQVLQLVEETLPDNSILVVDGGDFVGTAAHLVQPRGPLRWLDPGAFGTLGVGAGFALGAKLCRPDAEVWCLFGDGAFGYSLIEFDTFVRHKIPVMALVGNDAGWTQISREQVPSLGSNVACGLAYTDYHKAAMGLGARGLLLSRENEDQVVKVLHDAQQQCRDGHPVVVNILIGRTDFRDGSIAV
UniProt Q9Y6K9, whole entry: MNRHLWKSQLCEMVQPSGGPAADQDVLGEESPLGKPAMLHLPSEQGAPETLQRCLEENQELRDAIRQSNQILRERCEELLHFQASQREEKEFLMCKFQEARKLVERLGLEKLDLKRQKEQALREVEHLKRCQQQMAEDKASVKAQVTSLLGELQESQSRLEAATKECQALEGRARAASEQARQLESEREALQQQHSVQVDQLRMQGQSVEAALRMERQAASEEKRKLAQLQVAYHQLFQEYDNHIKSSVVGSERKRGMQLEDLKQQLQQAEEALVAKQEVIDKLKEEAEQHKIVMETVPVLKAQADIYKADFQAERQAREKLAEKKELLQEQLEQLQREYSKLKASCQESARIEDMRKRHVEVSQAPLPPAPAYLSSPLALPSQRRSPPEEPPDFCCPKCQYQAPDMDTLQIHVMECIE
UniProt Q9BT40: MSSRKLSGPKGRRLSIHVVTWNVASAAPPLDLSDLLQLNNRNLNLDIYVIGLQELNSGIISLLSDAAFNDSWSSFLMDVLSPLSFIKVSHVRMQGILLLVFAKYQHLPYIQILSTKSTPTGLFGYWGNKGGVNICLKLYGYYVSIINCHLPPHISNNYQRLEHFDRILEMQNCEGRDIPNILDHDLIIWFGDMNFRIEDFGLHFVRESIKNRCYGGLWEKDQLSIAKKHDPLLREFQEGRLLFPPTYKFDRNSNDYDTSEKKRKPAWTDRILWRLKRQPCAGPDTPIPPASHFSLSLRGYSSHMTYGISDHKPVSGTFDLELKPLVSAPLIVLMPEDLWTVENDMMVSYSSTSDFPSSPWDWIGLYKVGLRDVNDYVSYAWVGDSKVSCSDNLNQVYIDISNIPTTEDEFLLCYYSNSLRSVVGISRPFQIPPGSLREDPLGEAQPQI
UniProt A8MPS7: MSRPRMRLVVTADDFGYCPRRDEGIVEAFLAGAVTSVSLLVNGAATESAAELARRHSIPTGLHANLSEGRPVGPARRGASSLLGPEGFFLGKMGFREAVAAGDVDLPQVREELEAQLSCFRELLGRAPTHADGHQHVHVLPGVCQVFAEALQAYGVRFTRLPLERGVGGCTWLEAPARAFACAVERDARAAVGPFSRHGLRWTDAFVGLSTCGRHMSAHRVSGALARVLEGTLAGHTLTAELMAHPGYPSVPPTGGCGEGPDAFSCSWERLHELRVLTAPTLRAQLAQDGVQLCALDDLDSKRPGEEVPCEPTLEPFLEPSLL
UniProt A1L020: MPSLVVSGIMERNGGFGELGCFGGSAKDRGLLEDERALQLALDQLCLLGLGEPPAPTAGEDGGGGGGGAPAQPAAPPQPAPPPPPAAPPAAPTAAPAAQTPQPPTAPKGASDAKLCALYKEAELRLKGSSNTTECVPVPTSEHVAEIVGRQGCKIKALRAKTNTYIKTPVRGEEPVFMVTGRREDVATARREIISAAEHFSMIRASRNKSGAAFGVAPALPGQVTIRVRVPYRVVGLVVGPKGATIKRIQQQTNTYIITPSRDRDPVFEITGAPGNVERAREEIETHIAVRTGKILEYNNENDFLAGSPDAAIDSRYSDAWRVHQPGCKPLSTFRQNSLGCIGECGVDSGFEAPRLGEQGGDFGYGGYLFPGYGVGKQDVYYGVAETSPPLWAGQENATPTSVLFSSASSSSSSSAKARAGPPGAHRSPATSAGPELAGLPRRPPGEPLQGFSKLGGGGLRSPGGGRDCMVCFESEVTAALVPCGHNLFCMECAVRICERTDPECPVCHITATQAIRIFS
UniProt Q9Y618, whole entry: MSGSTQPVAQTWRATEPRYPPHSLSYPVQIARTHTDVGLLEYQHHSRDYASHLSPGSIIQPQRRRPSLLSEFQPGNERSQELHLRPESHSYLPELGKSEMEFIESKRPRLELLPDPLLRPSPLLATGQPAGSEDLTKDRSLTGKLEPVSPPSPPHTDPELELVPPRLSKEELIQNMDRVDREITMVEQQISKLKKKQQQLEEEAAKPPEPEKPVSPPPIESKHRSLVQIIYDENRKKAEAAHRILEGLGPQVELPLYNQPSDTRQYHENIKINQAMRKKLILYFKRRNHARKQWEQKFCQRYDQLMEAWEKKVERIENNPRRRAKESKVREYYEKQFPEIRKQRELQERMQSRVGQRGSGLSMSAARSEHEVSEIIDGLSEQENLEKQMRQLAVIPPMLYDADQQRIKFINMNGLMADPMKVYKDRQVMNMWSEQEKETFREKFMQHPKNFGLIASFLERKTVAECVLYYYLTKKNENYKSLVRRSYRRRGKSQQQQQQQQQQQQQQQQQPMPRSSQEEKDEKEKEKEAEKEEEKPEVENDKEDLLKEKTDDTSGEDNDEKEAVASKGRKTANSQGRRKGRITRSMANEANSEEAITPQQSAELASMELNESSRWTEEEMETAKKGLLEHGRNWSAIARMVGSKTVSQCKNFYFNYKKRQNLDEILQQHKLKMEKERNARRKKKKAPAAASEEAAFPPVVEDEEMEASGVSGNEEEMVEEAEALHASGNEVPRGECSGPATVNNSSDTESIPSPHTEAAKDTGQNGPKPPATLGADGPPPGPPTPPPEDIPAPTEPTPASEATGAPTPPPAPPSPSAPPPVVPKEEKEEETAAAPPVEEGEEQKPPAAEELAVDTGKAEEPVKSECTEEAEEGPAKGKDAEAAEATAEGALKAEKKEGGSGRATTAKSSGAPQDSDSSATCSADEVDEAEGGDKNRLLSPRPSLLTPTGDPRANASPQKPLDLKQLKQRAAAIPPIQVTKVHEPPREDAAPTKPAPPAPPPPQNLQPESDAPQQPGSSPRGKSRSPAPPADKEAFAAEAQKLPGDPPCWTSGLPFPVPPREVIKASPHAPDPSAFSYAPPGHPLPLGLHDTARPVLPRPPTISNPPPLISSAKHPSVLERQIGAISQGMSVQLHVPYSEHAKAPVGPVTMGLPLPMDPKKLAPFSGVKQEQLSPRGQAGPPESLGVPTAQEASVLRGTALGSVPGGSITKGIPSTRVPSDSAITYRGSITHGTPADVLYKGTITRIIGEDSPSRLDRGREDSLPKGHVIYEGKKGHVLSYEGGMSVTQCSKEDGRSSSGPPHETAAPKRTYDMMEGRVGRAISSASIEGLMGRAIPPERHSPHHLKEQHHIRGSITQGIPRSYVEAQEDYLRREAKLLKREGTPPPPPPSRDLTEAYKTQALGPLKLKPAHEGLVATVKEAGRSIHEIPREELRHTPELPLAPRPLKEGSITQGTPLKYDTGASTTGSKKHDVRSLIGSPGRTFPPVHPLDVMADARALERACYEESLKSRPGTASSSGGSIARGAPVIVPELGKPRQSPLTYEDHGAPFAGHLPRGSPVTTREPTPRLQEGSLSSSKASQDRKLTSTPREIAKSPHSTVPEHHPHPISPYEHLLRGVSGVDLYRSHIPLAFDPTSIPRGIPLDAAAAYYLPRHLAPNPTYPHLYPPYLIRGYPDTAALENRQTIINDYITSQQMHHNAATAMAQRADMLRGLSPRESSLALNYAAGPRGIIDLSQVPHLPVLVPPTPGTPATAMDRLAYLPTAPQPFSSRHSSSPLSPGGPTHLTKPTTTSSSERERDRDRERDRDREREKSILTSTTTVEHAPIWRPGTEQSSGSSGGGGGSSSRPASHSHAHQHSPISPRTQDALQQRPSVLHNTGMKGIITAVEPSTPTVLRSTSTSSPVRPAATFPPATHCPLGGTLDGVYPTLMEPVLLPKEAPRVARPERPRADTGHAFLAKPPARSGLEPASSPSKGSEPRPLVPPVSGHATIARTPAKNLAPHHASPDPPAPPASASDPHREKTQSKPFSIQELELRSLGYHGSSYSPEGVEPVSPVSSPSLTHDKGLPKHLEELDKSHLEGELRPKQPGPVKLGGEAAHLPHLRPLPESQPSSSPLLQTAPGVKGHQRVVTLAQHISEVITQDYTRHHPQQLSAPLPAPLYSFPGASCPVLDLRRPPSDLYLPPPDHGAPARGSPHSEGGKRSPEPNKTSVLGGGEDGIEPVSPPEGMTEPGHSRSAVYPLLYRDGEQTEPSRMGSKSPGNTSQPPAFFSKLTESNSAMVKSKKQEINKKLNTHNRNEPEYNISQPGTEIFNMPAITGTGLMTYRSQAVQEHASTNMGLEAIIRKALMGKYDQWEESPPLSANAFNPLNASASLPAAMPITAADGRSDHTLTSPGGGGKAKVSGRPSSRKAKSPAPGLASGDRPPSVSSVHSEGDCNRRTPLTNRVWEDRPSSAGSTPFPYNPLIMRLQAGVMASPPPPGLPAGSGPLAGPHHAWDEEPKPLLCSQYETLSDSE
UniProt Q9P2W9: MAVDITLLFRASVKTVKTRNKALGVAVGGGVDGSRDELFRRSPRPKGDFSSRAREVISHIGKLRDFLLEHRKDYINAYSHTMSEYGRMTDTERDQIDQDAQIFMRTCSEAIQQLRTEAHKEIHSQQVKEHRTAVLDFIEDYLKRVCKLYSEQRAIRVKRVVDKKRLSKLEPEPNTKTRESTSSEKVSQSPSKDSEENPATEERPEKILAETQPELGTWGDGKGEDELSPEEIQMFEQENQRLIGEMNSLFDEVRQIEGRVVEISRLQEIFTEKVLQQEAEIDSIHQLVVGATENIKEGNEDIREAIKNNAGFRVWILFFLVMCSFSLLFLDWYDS
UniProt Q86WB0: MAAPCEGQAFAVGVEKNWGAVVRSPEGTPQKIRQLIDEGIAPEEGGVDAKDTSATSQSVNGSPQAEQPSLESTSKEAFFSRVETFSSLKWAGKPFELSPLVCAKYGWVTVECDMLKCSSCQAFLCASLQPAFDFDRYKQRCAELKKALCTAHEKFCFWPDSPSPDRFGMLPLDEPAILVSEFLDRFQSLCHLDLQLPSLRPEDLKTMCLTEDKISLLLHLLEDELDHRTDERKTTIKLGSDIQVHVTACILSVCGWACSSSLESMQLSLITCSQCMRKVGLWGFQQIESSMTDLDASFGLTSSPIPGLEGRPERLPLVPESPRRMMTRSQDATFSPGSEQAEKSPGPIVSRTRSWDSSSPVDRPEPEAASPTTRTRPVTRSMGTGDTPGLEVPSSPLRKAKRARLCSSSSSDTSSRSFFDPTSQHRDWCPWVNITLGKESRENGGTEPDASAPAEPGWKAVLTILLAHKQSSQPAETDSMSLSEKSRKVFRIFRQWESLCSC
UniProt Q5XKP0: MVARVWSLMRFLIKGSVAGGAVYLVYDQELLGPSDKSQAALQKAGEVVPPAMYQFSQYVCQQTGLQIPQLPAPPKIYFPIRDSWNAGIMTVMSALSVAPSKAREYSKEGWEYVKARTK

Target	NP40-soluble protein abundance (concentration: 1mM)	NP40-soluble protein abundance (concentration: 2mM)	NP40-soluble protein abundance (concentration: 4mM)	NP40-soluble protein abundance (concentration: 6mM)	NP40-soluble protein abundance (concentration: 8mM)	NP40-soluble protein abundance (concentration: 10mM)
B9ZVU2 and related entries (UniProt Q9ULA0)	1.02 ± 0.046	0.974 ± 0.034	0.939 ± 0.03	0.932 ± 0.0098	0.982 ± 0.023	0.949 ± 0.029
A8K727 and related entries (UniProt Q9HB19)	1.09 ± 0.022	1.11 ± 0.013	1.11 ± 0.013	1.124 ± 0.0059	1.2 ± 0.021	1.21 ± 0.027
ILVBL (UniProt A1L0T0)	0.944 ± 0.019	0.974 ± 0.044	0.948 ± 0.019	0.911 ± 0.074	0.96 ± 0.031	0.988 ± 0.045
D6RDN9 and related entries (UniProt Q15119)	1.18 ± 0.12	1.11 ± 0.034	1.18 ± 0.16	1.12 ± 0.094	1.17 ± 0.15	1.2 ± 0.12
A0A0U1RR06|A6NM71 and related entries (UniProt Q9Y484)	1.05 ± 0.15	1.11 ± 0.16	1.08 ± 0.08	1.05 ± 0.18	0.984 ± 0.062	0.963 ± 0.047
C9JNW5 and related entries (UniProt P83731)	0.838 ± 0.044	0.819 ± 0.056	0.77 ± 0.051	0.745 ± 0.08	0.631 ± 0.063	0.758 ± 0.056
C9JLU1 and related entries (UniProt P52434)	1.08 ± 0.19	0.976 ± 0.14	0.996 ± 0.16	0.94 ± 0.13	1.02 ± 0.099	0.957 ± 0.07
C9J6P4 and related entries (UniProt Q7Z2W4)	1.16 ± 0.013	1.151 ± 0.0077	1.166 ± 0.0062	1.167 ± 0.011	1.18 ± 0.032	1.16 ± 0.03
FAM171A2 (UniProt A8MVW0)	0.924 ± 0.049	0.948 ± 0.018	0.973 ± 0.09	0.887 ± 0.064	0.89 ± 0.011	0.892 ± 0.03
B4DY09 and related entries (UniProt Q12905)	1.11 ± 0.081	1.14 ± 0.062	1.19 ± 0.055	1.21 ± 0.022	1.31 ± 0.053	1.34 ± 0.091
C9J7K9 and related entries (UniProt O15162)	0.931 ± 0.14	0.911 ± 0.1	0.935 ± 0.12	0.883 ± 0.052	0.944 ± 0.13	0.942 ± 0.057
C9J2V2 and related entries (UniProt Q9Y6K9)	0.982 ± 0.091	0.949 ± 0.046	0.961 ± 0.057	0.971 ± 0.058	0.956 ± 0.04	0.914 ± 0.057
C9JYE9 and related entries (UniProt Q15329)	0.992 ± 0.12	0.974 ± 0.054	0.96 ± 0.082	1.05 ± 0.054	0.894 ± 0.018	0.902 ± 0.043
B4E3Q4 and related entries (UniProt Q9NZK5)	1.03 ± 0.032	0.9992 ± 0.0063	0.99 ± 0.018	0.948 ± 0.055	1 ± 0.041	0.991 ± 0.039
A0A0U1RRM4|A6NLN1 and related entries (UniProt P26599)	0.882 ± 0.2	1.02 ± 0.018	0.975 ± 0.056	0.959 ± 0.12	0.949 ± 0.029	0.953 ± 0.067
B4E0T2 and related entries (UniProt P50542)	0.975 ± 0.039	0.991 ± 0.063	0.964 ± 0.043	0.997 ± 0.025	0.938 ± 0.036	0.942 ± 0.023
UniProt A2RRP1 and related entries	1.04 ± 0.085	1 ± 0.061	1 ± 0.044	0.945 ± 0.06	1.02 ± 0.015	0.997 ± 0.061
C9JZB0 and related entries (UniProt Q9BT40)	1.05 ± 0.076	1.02 ± 0.083	1.06 ± 0.061	1.06 ± 0.096	1.11 ± 0.026	1.12 ± 0.067
C9J7Z4 and related entries (UniProt Q8NCE0)	1.04 ± 0.066	1.05 ± 0.024	1.06 ± 0.016	1.04 ± 0.025	1.05 ± 0.065	1 ± 0.038
UniProt A2VDJ0 and related entries	1.03 ± 0.06	1.1 ± 0.16	1.04 ± 0.028	1.03 ± 0.092	1.15 ± 0.28	1.09 ± 0.16
YDJC (UniProt A8MPS7)	1.03 ± 0.039	1.08 ± 0.052	1.02 ± 0.043	1 ± 0.056	0.986 ± 0.055	0.982 ± 0.046
MEX3A (UniProt A1L020)	1.03 ± 0.15	1.04 ± 0.11	1.06 ± 0.11	1.04 ± 0.084	1.06 ± 0.14	0.985 ± 0.07
C9J0Q5 and related entries (UniProt Q9Y618)	0.988 ± 0.072	0.989 ± 0.06	1.03 ± 0.076	1.06 ± 0.11	1.01 ± 0.066	1.05 ± 0.079
A0A0U1RQQ9|Q6P3W7 (UniProt Q6P3W7)	0.9883 ± 0.0068	0.987 ± 0.05	0.971 ± 0.026	0.98 ± 0.033	0.957 ± 0.03	0.994 ± 0.057
UniProt A5PLN9 and related entries	0.964 ± 0.089	0.975 ± 0.056	0.986 ± 0.023	0.901 ± 0.049	0.984 ± 0.056	0.965 ± 0.029
A8MTY9 and related entries (UniProt O14972)	1.03 ± 0.024	1.06 ± 0.035	1.09 ± 0.029	1.04 ± 0.031	1.07 ± 0.015	1.05 ± 0.059
D6RF48 and related entries (UniProt Q9P2W9)	0.94 ± 0.052	0.947 ± 0.051	0.938 ± 0.045	0.969 ± 0.043	0.925 ± 0.062	0.945 ± 0.035
UniProt A6NHX0	1.05 ± 0.087	0.9126 ± 0.0082	0.93 ± 0.014	0.9445 ± 0.0071	1.01 ± 0.024	0.922 ± 0.03
C9J0I9 and related entries (UniProt Q86WB0)	0.995 ± 0.024	1 ± 0.019	0.98 ± 0.035	0.963 ± 0.041	0.961 ± 0.041	0.964 ± 0.023
A0A140TA86|Q5XKP0 (UniProt Q5XKP0)	0.962 ± 0.04	0.878 ± 0.03	0.913 ± 0.039	0.957 ± 0.019	0.929 ± 0.025	0.859 ± 0.043

Shown with each value named: part of the list above
C9JZB0 and related entries (UniProt Q9BT40)
  NP40-soluble protein abundance (concentration: 1mM): 1.05 ± 0.076
  NP40-soluble protein abundance (concentration: 2mM): 1.02 ± 0.083
  NP40-soluble protein abundance (concentration: 4mM): 1.06 ± 0.061
  NP40-soluble protein abundance (concentration: 6mM): 1.06 ± 0.096
  NP40-soluble protein abundance (concentration: 8mM): 1.11 ± 0.026
  NP40-soluble protein abundance (concentration: 10mM): 1.12 ± 0.067
C9J7Z4 and related entries (UniProt Q8NCE0)
  NP40-soluble protein abundance (concentration: 1mM): 1.04 ± 0.066
  NP40-soluble protein abundance (concentration: 2mM): 1.05 ± 0.024
  NP40-soluble protein abundance (concentration: 4mM): 1.06 ± 0.016
  NP40-soluble protein abundance (concentration: 6mM): 1.04 ± 0.025
  NP40-soluble protein abundance (concentration: 8mM): 1.05 ± 0.065
  NP40-soluble protein abundance (concentration: 10mM): 1 ± 0.038

Reference: the supplement of paper PMC6411743
